Laboratory results reported in EP4775586A1, “DEUTERATED TETRACYCLIC DERIVATIVE AND USE THEREOF” (priority 2023, dated 2025).
At least one read-out could not be matched to a standard name with certainty.

Assay: Pharmacokinetics and lung tissue distribution in mice, LC-MS/MS
Type: in vivo
Settings: Balb/C mice, single intragastric administration, 100 mg/kg
Description: In this example, the pharmacokinetic parameters and lung tissue distribution of the deuterated compounds YF027, YF032, YF036, and YF044 and their respective non-deuterated control compounds (A, B, C, and D) were determined.
Balb/C mice, male (1 group at each time point, 5 mice per group, 55 mice per compound in total), 7-8 weeks old, weighing about 20 g, animal source: Beijing Vital River Laboratory Animal Technology Co., Ltd.
The test compound was completely dissolved in an 8% Tween-80 aqueous solution. A 10 mg/mL drug liquid was prepared for intraperitoneal injection and intragastric administration.
Single intragastric administration was performed at a dose of 100 mg/kg. The pharmacokinetic differences between the deuterated compounds YF027, YF032, YF036, and YF044 and their respective non-deuterated controls A, B, C, and D were compared.
The mice were fasted overnight before administration. In the experiment, orbital venous blood and lung tissue were collected from the mice at time points of no administration group (0 min) and 10 min, 20 min, 30 min, 1 h, 2 h, 3 h, 4 h, 6 h, 8 h, and 24 h after intragastric administration, and about 300 µL of blood was collected from the eyeballs each time. […]
The concentrations of the compounds of the present disclosure and control compounds in plasma and lung tissue were determined using LC-MS/MS. […]

Substance	Lung tissue distribution Cmax [ng/g]
8-((4-(3-Chlorophenyl)piperidin-1-yl-2,2,6,6-d4)methyl-d2)-3,9-dihydroxybenzo[5,6]oxepino[4,3-b]benzofuran-7(5H)-one hydrochloride [YF032]	26338.0
8-((4-Butanoylpiperidin-1-yl-2,2,6,6-d4)-methyl-d2)-3,9-dihydroxybenzo[5,6]oxepino[4,3-b]benzofuran-7(5H)-one hydrochloride [YF036]	13097.46
